Data from paper PMC5263256.
Read-outs that look alike come from different tables or passages of the source. Results are given in words; binding and its absence hold for the method and conditions named. In cells and extracts the contact can be indirect. Some results given as binding are weak or reduced against the parent protein; the word gives no strength. For some assays here: Where a sequence is shown, tags or fusion partners need not be part of it.

Protein sequences, listed by entry. Tags and fused reporters are not part of them.
UniProt Q6P4S8: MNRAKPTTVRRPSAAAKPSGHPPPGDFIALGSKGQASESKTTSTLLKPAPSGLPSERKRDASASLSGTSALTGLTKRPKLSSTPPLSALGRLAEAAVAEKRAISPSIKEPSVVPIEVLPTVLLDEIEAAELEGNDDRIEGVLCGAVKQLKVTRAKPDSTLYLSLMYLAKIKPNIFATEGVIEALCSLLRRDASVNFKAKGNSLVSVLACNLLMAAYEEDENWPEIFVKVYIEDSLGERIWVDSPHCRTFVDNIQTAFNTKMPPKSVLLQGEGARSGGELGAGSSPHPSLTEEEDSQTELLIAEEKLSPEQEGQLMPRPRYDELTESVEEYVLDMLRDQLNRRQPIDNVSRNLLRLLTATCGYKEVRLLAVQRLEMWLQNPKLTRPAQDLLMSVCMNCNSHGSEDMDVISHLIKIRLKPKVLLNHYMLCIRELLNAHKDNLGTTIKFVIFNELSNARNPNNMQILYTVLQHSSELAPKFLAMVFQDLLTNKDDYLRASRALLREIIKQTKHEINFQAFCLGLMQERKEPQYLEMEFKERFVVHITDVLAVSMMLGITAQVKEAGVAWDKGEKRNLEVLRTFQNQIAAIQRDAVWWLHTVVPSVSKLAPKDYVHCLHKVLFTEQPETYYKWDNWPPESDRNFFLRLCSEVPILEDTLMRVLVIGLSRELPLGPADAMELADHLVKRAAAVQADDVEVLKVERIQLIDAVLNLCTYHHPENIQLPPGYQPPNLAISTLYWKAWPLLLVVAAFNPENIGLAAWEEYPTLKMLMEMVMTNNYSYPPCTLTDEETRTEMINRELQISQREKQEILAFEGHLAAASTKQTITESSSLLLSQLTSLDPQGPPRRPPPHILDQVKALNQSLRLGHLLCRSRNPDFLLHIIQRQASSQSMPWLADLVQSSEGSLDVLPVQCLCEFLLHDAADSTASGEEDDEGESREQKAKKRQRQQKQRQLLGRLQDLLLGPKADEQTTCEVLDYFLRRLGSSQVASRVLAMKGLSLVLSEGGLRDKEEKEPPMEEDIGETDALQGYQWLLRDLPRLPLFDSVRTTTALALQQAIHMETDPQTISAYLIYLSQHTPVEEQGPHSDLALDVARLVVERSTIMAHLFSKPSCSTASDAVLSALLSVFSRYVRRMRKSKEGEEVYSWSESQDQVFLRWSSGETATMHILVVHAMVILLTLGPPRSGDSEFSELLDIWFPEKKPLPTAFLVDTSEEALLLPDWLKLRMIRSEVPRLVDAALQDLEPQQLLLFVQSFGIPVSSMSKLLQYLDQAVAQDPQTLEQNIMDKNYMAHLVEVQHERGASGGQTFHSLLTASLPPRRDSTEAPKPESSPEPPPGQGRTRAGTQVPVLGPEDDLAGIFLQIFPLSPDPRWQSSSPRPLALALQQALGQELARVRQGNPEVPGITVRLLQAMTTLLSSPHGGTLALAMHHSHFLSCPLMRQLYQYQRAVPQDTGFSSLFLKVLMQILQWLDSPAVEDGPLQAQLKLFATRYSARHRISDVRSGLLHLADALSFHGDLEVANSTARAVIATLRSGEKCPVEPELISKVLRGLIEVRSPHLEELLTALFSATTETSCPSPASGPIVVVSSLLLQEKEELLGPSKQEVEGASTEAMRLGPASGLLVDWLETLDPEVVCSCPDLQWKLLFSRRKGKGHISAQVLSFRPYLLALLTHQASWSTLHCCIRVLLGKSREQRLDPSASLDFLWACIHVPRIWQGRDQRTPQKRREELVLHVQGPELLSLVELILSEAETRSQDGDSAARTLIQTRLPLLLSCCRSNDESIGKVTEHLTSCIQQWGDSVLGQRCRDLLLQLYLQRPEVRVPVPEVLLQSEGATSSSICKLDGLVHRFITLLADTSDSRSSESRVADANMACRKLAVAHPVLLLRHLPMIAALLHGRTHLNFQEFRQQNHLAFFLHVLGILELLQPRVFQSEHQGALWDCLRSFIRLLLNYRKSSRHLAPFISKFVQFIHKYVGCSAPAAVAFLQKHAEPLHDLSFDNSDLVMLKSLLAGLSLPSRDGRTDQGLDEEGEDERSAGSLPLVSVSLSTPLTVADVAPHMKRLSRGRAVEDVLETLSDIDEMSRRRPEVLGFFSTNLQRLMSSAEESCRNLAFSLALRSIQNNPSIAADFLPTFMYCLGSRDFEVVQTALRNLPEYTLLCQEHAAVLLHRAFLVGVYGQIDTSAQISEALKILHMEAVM
UniProt Q6KCD5: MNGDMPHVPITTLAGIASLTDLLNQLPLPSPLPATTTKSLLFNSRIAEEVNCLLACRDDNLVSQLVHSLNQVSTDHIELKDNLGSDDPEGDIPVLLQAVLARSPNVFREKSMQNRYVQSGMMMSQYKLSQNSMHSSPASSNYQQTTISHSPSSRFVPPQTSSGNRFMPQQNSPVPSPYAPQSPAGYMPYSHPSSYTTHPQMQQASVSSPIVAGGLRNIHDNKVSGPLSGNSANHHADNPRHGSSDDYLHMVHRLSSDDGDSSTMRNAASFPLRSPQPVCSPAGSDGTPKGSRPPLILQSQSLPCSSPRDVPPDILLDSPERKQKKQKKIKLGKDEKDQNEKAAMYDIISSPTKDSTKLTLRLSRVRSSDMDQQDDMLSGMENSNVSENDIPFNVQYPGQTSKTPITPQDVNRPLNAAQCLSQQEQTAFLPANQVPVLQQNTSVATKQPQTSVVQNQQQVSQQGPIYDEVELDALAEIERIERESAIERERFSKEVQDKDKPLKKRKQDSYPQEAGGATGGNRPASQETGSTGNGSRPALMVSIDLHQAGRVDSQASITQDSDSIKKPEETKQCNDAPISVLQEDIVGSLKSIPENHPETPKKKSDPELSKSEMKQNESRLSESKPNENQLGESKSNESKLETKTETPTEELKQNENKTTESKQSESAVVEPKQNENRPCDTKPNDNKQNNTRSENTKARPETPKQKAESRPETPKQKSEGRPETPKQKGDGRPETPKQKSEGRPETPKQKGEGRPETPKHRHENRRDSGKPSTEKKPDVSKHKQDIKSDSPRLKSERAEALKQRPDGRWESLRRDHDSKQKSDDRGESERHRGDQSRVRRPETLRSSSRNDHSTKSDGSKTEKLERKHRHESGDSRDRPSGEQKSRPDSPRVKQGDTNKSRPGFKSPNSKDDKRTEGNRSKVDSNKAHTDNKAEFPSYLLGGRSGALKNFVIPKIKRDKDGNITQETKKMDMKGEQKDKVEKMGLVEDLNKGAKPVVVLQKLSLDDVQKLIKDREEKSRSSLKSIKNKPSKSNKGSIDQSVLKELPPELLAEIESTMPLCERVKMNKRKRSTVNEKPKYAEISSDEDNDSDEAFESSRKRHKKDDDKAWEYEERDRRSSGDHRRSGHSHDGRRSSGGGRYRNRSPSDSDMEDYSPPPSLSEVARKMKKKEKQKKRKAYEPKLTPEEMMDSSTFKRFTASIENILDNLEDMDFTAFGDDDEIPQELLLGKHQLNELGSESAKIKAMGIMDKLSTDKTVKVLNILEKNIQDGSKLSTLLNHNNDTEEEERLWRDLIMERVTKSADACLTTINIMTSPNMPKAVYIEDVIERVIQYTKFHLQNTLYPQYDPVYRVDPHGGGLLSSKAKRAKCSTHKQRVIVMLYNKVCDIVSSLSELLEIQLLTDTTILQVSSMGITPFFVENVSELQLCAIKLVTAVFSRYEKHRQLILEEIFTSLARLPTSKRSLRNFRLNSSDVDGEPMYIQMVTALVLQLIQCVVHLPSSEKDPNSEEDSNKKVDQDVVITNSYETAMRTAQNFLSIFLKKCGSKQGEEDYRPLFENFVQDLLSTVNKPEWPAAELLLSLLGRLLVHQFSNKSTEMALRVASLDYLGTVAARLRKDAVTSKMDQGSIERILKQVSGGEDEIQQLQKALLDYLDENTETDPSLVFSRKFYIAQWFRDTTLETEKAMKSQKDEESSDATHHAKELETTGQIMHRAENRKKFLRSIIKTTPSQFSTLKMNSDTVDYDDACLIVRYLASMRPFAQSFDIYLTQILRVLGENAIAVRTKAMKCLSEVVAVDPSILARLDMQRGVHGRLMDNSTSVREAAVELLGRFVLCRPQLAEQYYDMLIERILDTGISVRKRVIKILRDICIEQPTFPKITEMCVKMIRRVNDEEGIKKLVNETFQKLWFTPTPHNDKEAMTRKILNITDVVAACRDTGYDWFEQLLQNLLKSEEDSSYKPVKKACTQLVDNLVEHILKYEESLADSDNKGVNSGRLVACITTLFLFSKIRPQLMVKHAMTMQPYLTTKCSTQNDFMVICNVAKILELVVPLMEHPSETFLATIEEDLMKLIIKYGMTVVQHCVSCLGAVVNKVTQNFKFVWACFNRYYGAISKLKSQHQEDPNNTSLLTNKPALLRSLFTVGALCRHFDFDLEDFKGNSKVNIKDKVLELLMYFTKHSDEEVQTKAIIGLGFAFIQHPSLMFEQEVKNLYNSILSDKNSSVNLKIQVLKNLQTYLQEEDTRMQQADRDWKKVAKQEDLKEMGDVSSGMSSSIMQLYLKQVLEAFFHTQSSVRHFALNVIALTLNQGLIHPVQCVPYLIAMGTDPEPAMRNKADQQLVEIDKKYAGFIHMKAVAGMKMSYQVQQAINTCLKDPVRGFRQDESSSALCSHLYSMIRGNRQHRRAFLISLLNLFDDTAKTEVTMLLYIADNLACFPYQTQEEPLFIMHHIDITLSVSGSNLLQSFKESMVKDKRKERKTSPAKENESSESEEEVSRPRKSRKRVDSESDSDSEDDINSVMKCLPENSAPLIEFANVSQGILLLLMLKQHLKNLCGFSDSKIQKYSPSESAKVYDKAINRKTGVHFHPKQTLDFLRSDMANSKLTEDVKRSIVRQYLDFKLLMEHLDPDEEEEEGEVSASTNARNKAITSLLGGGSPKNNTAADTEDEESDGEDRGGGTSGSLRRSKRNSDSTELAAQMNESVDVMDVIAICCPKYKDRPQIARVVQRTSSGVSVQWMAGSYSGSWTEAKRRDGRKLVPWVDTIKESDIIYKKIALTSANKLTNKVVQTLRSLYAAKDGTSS
UniProt Q9CWS4: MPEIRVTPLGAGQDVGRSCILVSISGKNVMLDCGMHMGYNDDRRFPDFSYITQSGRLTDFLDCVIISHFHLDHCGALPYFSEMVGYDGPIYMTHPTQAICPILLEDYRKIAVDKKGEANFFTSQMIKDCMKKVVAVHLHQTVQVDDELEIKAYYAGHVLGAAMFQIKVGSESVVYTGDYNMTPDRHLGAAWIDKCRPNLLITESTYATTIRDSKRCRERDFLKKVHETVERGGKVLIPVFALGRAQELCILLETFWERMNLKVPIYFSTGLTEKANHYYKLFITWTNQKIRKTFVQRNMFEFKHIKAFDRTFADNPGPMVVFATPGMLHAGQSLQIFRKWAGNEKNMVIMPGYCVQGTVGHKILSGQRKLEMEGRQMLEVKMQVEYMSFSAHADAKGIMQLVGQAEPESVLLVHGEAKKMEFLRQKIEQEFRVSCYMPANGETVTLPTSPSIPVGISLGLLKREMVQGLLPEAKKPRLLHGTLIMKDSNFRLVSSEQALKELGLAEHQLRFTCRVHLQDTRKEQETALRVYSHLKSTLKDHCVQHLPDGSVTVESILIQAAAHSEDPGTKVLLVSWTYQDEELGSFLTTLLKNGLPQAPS

T1: V5-tagged Zfp609 (mouse) (UniProt Q8BZ47)
T1 sequence: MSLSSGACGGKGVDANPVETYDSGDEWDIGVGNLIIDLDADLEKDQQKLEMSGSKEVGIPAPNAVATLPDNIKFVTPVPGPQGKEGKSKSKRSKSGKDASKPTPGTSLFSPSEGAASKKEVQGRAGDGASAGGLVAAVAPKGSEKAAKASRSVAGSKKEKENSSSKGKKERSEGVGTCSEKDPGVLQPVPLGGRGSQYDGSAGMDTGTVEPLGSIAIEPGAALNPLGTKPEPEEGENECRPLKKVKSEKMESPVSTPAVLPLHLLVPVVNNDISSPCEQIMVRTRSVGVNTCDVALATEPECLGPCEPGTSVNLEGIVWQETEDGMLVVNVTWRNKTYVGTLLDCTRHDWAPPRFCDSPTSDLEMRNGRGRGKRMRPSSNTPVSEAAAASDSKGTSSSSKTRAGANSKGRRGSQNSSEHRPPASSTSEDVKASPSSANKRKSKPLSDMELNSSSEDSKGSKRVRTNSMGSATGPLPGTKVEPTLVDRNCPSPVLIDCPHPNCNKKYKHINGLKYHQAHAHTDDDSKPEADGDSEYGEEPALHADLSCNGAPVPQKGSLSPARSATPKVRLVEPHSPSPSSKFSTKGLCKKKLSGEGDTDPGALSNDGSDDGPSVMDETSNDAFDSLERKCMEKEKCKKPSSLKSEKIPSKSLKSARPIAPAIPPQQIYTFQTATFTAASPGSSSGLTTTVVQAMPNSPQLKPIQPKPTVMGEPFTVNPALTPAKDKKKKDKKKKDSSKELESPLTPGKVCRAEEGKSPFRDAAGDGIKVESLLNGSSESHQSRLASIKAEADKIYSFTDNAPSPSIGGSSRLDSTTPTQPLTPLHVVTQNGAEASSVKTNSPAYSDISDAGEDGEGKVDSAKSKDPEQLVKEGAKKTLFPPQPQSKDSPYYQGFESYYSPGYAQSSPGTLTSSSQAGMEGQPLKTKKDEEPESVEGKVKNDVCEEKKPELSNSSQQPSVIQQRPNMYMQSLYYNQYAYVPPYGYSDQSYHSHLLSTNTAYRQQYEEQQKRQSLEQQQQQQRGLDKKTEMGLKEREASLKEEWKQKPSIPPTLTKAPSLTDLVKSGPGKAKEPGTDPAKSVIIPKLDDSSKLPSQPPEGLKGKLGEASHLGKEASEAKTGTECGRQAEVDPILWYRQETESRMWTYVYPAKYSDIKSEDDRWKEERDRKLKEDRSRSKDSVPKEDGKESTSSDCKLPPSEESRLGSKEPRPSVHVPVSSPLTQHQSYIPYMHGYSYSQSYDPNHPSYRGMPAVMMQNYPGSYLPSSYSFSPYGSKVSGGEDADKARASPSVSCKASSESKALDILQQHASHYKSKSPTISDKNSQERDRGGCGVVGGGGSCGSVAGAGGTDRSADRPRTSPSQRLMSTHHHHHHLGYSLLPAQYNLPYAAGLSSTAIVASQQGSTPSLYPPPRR


Columns and labels:
[1] = target: Ints1 (mouse (endogenous in NS5 NSCs)) (UniProt Q6P4S8); assay: co-IP; immunoprecipitation of endogenous proteins (Nipbl or Ints1 antibody) from NSC nuclear extract, western blot; Benzonase or ethidium bromide added as indicated; normal mouse IgG or rabbit anti-GFP as control
V5-tagged Zfp609 (mouse) = target: T1, V5-tagged Zfp609 (mouse); assay: co-IP; V5 immunoprecipitates from nuclear extract of Zfp609-V5-expressing NSCs, western blot; Benzonase or ethidium bromide added as indicated; normal mouse IgG or control NSC extract as control
[2] = target: Nipbl (mouse (endogenous in NS5 NSCs)) (UniProt Q6KCD5); assay: co-IP; immunoprecipitation of endogenous proteins (Nipbl or Ints1 antibody) from NSC nuclear extract, western blot; Benzonase or ethidium bromide added as indicated; normal mouse IgG or rabbit anti-GFP as control
[3] = target: Ints1 (mouse (endogenous in NS5 NSCs)) (UniProt Q6P4S8); assay: as above; remark: listed apart in the source

| binding [1] | binding (V5-tagged Zfp609 (mouse)) | binding [2] | binding [3] | Molecule |
| --- | --- | --- | --- | --- |
| binds | – | – | – | Cpsf3l (from UniProt Q9CWS4 1-600) |
| – | binds | – | – | Ints1 (from UniProt Q6P4S8 1-2195) |
| binds | binds | – | – | Nipbl (from UniProt Q6KCD5 1-2798) |
| – | binds | binds weakly | – | Smc1a (protein, UniProt Q9CU62 1-1233) MGFLKLIEIENFKSYKGRQIIGPFQRFTAIIGPNGSGKSNLMDAISFVLGEKTSNLRVKTLRDLIHGAPVGKPAANRAFVSMVYSEEGAEDRTFARVIVGGSSEYKINNKVVQLHEYSEELEKLGILIKARNFLVFQGAVESIAMKNPKERTALFEEISRSGELAQEYDKRKKEMVKAEEDTQFNYHRKKNIAAERKEAKQEKEEADRYQRLKDEVVRAQVQLQLFKLYHNEVEIEKLNKELASKNKEIEKDKKRMDKVEDELKEKKKELGKMMREQQQIEKEIKEKDSELNQKRPQYIKAKENTSHKIKKLEAAKKSLQNAQKHYKKRKGDMDELEKEMLSVEKARQEFEERMEEESQSQGRDLTLEENQVKKYHRLKEEASKRAATLAQELEKFNRDQKADQDRLDLEERKKVETEAKIKQKLREIEENQKRIEKLEEYITTSKQSLEEQKKLEGELTEEVEMAKRRIDEINKELNQVMEQLGDARIDRQESSRQQRKAEIMESIKRLYPGSVYGRLIDLCQPTQKKYQIAVTKVLGKNMDAIIVDSEKTGRDCIQYIKEQRGEPETFLPLDYLEVKPTDEKLRELKGAKLVIDVIRYEPPHIKKALQYACGNALVCDNVEDARRIAFGGHQRHKTVALDGTLFQKSGVISGGASDLKAKARRWDEKAVDKLKEKKERLTEELKEQMKAKRKEAELRQVQSQAHGLQMRLKYSQSDLEQTKTRHLALNLQEKSKLESELANFGPRINDIKRIIQSREREMKDLKEKMNQVEDEVFEEFCREIGVRNIREFEEEKVKRQNEIAKKRLEFENQKTRLGIQLDFEKNQLKEDQDKVHMWEQTVKKDENEIEKLKKEEQRHMKIIDETMAQLQDLKNQHLAKKSEVNDKNHEMEEIRKKLGGANKEMTHLQKEVTAIETKLEQKRSDRHNLLQACKMQDIKLPLSKGTMDDISQEEGSSQGEESVSGSQRTSSIYAREALIEIDYGDLCEDLKDAQAEEEIKQEMNTLQQKLNEQQSVLQRIAAPNMKAMEKLESVRDKFQETSDEFEAARKRAKKAKQAFEQIKKERFDRFNACFESVATNIDEIYKALSRNSSAQAFLGPENPEEPYLDGINYNCVAPGKRFRPMDNLSGGEKTVAALALLFAIHSYKPAPFFVLDEIDAALDNTNIGKVANYIKEQSTCNFQAIVISLKEEFYTKAESLIGVYPEQGDCVISKVLTFDLTKYPDANPNPNEQ |
| – | – | binds | binds | Zfp609 (endogenous) (protein, UniProt Q8BZ47 1-1413) MSLSSGACGGKGVDANPVETYDSGDEWDIGVGNLIIDLDADLEKDQQKLEMSGSKEVGIPAPNAVATLPDNIKFVTPVPGPQGKEGKSKSKRSKSGKDASKPTPGTSLFSPSEGAASKKEVQGRAGDGASAGGLVAAVAPKGSEKAAKASRSVAGSKKEKENSSSKGKKERSEGVGTCSEKDPGVLQPVPLGGRGSQYDGSAGMDTGTVEPLGSIAIEPGAALNPLGTKPEPEEGENECRPLKKVKSEKMESPVSTPAVLPLHLLVPVVNNDISSPCEQIMVRTRSVGVNTCDVALATEPECLGPCEPGTSVNLEGIVWQETEDGMLVVNVTWRNKTYVGTLLDCTRHDWAPPRFCDSPTSDLEMRNGRGRGKRMRPSSNTPVSEAAAASDSKGTSSSSKTRAGANSKGRRGSQNSSEHRPPASSTSEDVKASPSSANKRKSKPLSDMELNSSSEDSKGSKRVRTNSMGSATGPLPGTKVEPTLVDRNCPSPVLIDCPHPNCNKKYKHINGLKYHQAHAHTDDDSKPEADGDSEYGEEPALHADLSCNGAPVPQKGSLSPARSATPKVRLVEPHSPSPSSKFSTKGLCKKKLSGEGDTDPGALSNDGSDDGPSVMDETSNDAFDSLERKCMEKEKCKKPSSLKSEKIPSKSLKSARPIAPAIPPQQIYTFQTATFTAASPGSSSGLTTTVVQAMPNSPQLKPIQPKPTVMGEPFTVNPALTPAKDKKKKDKKKKDSSKELESPLTPGKVCRAEEGKSPFRDAAGDGIKVESLLNGSSESHQSRLASIKAEADKIYSFTDNAPSPSIGGSSRLDSTTPTQPLTPLHVVTQNGAEASSVKTNSPAYSDISDAGEDGEGKVDSAKSKDPEQLVKEGAKKTLFPPQPQSKDSPYYQGFESYYSPGYAQSSPGTLTSSSQAGMEGQPLKTKKDEEPESVEGKVKNDVCEEKKPELSNSSQQPSVIQQRPNMYMQSLYYNQYAYVPPYGYSDQSYHSHLLSTNTAYRQQYEEQQKRQSLEQQQQQQRGLDKKTEMGLKEREASLKEEWKQKPSIPPTLTKAPSLTDLVKSGPGKAKEPGTDPAKSVIIPKLDDSSKLPSQPPEGLKGKLGEASHLGKEASEAKTGTECGRQAEVDPILWYRQETESRMWTYVYPAKYSDIKSEDDRWKEERDRKLKEDRSRSKDSVPKEDGKESTSSDCKLPPSEESRLGSKEPRPSVHVPVSSPLTQHQSYIPYMHGYSYSQSYDPNHPSYRGMPAVMMQNYPGSYLPSSYSFSPYGSKVSGGEDADKARASPSVSCKASSESKALDILQQHASHYKSKSPTISDKNSQERDRGGCGVVGGGGSCGSVAGAGGTDRSADRPRTSPSQRLMSTHHHHHHLGYSLLPAQYNLPYAAGLSSTAIVASQQGSTPSLYPPPRR |
